For experiment [1], the target named is T1, MBP-Polα^+ (S. pombe) (UniProt P28040).
T1 sequence: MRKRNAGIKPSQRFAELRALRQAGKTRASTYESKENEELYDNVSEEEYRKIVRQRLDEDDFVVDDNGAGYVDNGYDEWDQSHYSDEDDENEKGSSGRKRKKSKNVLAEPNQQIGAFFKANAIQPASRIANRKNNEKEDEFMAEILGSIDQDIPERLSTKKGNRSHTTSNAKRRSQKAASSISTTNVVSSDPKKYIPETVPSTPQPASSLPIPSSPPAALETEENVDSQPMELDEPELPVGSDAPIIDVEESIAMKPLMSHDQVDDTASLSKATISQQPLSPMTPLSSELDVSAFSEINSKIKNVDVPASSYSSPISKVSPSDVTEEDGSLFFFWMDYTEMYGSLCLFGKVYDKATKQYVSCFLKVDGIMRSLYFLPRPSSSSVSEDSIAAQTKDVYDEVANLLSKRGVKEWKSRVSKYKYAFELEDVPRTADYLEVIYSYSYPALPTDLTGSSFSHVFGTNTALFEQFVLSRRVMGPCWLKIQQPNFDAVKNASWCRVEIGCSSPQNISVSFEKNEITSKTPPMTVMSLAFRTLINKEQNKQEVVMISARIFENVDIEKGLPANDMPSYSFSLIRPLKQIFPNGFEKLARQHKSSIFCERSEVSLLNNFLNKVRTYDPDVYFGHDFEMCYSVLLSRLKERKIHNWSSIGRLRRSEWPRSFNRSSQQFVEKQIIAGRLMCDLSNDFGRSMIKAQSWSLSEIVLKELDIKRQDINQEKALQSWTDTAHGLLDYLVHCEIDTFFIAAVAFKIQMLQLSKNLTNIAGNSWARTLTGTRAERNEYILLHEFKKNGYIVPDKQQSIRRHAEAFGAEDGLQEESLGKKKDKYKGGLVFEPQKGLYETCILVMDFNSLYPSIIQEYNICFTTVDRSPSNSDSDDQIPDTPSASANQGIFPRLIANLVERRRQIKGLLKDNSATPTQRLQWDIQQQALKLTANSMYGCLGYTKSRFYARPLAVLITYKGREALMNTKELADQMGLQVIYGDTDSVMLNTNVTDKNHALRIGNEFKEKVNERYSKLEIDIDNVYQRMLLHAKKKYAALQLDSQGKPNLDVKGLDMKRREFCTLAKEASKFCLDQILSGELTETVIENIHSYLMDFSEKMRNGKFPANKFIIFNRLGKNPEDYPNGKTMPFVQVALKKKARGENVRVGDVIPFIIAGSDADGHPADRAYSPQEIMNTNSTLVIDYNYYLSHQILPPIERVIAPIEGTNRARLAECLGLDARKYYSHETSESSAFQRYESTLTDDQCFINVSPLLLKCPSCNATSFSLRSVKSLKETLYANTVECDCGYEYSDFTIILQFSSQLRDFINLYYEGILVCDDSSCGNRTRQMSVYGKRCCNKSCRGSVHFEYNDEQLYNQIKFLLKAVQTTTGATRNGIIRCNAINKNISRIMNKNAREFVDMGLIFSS
The experiment can be described thus: pull-down.

In experiment [2] the target is T2, MBP-Polα^swi7-1 (S. pombe) (UniProt P28040).
T2 sequence: T1 sequence with G1116E
Kind of experiment: pull-down.

Numbering of substitutions follows the chain as printed. Results are given in words; binding and its absence hold for the method and conditions named. Some entries that bind do so weakly or less than the wild type. Tags and fused reporters may be left off the sequences shown.

B1: GST-Cdc23 (protein, UniProt O42709 1-593)
chain: MHDPFIAEENDLDLEEKRLQRQLNEIQEKKRLRSAQKEASSENAEVIQVPRSPPQQVRVLTVSSPSKLKSPKRLILGIDKGKTGKDVSLGKGPRGPLPKPFHERLAEARNQERKRSDKLKTMKKNRKQSFQRKRNILEDGKSEEEKFPMKCDEIDPYSRQAIVIRYISDEVAKENIGGNQVYLIHQLLKLVRAPKFEAPEVDNYVVMGIVASNSGTRETVNGNKYCMLTLTDLKWQLECFLFGKAFERYWKIQSGTVIALLNPEVLKPKNPDIGRFSLKLDSEYDVLLEIGRSKHLGYCSSRRKSGELCKHWLDKRAGDVCEYHVDLAVQRSMSTRTEFASSMATMHEPRARREKRFRGQGFQGYFAGEKYSAIPNAVAGLYDAEDAVQTERERKERYKKQRAQAEREREILVRLSKRCCASSSSSSNSNNLSTGMSMRTLGHQYLNLQGSGVKNLHDKGNPTALSKDSEIDSSTKKPSVLASFNASIMNPKSSLPSFSNSAILGTNDAASGTPVPQDTTSTKVSPAVVFTSSPRIFSPQSLRKIGFDPTHSADASTTHSTATGLSRSGSLKNIKFRYEFTESDDEDDLEIVP
On to B1, for which the binding result in experiment [1] and in experiment [2] was “binds” in each case.

Values taken from paper doi:10.1101/303180.
